Results are given in words; binding and its absence hold for the method and conditions named. Binding seen in cells or lysates may run through a third protein. Some entries that bind do so weakly or less than the wild type.
Target: Flag-YBX3 (wild type, full length) (UniProt P16989)
Test: co-IP; co-IP of TTC36 with FLAG-tagged full-length or truncated YBX3 constructs (#1, #2, #3); cells not given

Sequences of proteins named here, by UniProt entry; tags and fusion partners are left off.
UniProt P16989: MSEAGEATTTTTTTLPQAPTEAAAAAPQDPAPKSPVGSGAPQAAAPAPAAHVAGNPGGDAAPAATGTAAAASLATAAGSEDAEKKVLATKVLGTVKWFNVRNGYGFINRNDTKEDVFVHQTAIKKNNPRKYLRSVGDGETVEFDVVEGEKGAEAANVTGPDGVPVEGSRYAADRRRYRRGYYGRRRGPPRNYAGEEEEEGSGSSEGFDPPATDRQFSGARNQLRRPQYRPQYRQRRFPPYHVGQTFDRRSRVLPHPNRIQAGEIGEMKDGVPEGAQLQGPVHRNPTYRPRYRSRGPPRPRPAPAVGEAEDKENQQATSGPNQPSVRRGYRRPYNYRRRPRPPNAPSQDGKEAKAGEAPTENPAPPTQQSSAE

B1: TTC36 (as used in the co-IP with YBX3 truncation mutants) (protein, UniProt A6NLP5 1-189)
chain: MGTPNDQAVLQAIFNPDTPFGDIVGLDLGEEAEKEEREEDEVFPQAQLEQSKALELQGVMAAEAGDLSTALERFGQAICLLPERASAYNNRAQARRLQGDVAGALEDLERAVELSGGRGRAARQSFVQRGLLARLQGRDDDARRDFERAARLGSPFARRQLVLLNPYAALCNRMLADMMGQLRRPRDSR
In the case of B1, the binding is reported as “binds”.
